These are yes or no findings as the source states them, for the method shown. Some results given as binding are weak or reduced against the parent protein; the word gives no strength. Where a sequence is shown, tags or fusion partners need not be part of it.
T1: FLT3-HIS (human (accession given for hFLT3 in paragraph 116; species not restated for the reagent)) (UniProt P36888)
T1 sequence (soluble antigen used as staining reagent, looked up): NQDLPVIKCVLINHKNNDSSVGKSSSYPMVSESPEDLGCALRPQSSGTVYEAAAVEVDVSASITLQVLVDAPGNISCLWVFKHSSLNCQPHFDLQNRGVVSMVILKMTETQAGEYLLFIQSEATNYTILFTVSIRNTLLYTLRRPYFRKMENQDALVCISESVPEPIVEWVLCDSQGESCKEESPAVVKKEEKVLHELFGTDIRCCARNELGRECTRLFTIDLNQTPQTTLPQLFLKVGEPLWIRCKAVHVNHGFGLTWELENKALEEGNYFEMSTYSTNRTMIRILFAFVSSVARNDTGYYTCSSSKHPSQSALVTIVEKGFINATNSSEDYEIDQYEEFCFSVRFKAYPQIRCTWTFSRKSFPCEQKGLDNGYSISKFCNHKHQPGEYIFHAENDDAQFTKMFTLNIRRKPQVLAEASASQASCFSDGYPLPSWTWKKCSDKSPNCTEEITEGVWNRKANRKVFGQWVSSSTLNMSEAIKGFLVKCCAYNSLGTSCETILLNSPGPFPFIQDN


Each binder was assayed against T1, FLT3-HIS (human (accession given for hFLT3 in paragraph 116; species not restated for the reagent)) (assay: flow cytometry dot plot FSC against FLT3-HIS; CAR on lentivirus-transduced primary human T cells, Donor 2, stained with soluble FLT3-HIS and anti-HIS-PE).

| Binder | binding |
| --- | --- |
| 8B5 CHD (protein) CAR polypeptide (scFv, CHD hinge, transmembrane, costimulatory and CD3 zeta domains): QIQLVESGGGVVQPGRSLRLSCVASGFTFKNYGMHWVRQAPGKGLEWVAVIWYDGSNEYYGDPVKGRFTISRDNSKNMLYLQMNSLRADDTAVYYCARSGIAVAGAFDYWGQGTLVTVSSGGGGSGGGGSGGGGSEIVLTQSPDTLSLSPGEKATLSCRASQSVSSSFLAWYQQKPGQAPSLLIYVASRRAAGIPDRFSGSGSGTDFTLTISRLEPEDFGMFYCQHYGRTPFTFGPGTKVDIKRAAAIEVMYPPPYLDNEKSNGTIIHVKGKHLCPSPLFPGPSKPFWVLVVVGGVLACYSLLVTVAFIIFWVRSKRSRLLHSDYMNMTPRRPGPTRKHYQPYAPPRDFAAYRSRVKFSRSADAPAYQQGQNQLYNELNLGRREEYDVLDKRRGRDPEMGGKPRRKNPQEGLYNELQKDKMAEAYSEIGMKGERRRGKGHDGLYQGLSTATKDTYDALHMQALPPR | binds |
| 8B5 THD (protein) CAR polypeptide (scFv, THD hinge, transmembrane, costimulatory and CD3 zeta domains): QIQLVESGGGVVQPGRSLRLSCVASGFTFKNYGMHWVRQAPGKGLEWVAVIWYDGSNEYYGDPVKGRFTISRDNSKNMLYLQMNSLRADDTAVYYCARSGIAVAGAFDYWGQGTLVTVSSGGGGSGGGGSGGGGSEIVLTQSPDTLSLSPGEKATLSCRASQSVSSSFLAWYQQKPGQAPSLLIYVASRRAAGIPDRFSGSGSGTDFTLTISRLEPEDFGMFYCQHYGRTPFTFGPGTKVDIKRAAALDNEKSNGTIIHVKGKHLCPSPLFPGPSKPFWVLVVVGGVLACYSLLVTVAFIIFWVRSKRSRLLHSDYMNMTPRRPGPTRKHYQPYAPPRDFAAYRSRVKFSRSADAPAYQQGQNQLYNELNLGRREEYDVLDKRRGRDPEMGGKPRRKNPQEGLYNELQKDKMAEAYSEIGMKGERRRGKGHDGLYQGLSTATKDTYDALHMQALPPR | binds |

The remaining lines, values ahead:

| binding | Binder |
| --- | --- |
| binds | 10E3 THD (protein) CAR polypeptide (scFv, THD hinge, transmembrane, costimulatory and CD3 zeta domains): QVTLKESGPVLVKPTETLTLTCTVSGFSLINARMGVSWIRQPPGKALEWLAHIFSNAEKSYRTSLKSRLTISKDTSKSQVVLTMTNMDPVDTATYYCARIPGYGGNGDYHYYGMDVWGQGTTVTVSSGGGGSGGGGSGGGGSDIQMTQSPSSLSASLGDRVTITCRASQGIRNDLGWYQQKPGKAPKRLIYASSTLQSGVPSRFSGSGSGTEFTLTISSLQPEDFATYYCLQHNNFPWTFGQGTKVEIKRAAALDNEKSNGTIIHVKGKHLCPSPLFPGPSKPFWVLVVVGGVLACYSLLVTVAFIIFWVRSKRSRLLHSDYMNMTPRRPGPTRKHYQPYAPPRDFAAYRSRVKFSRSADAPAYQQGQNQLYNELNLGRREEYDVLDKRRGRDPEMGGKPRRKNPQEGLYNELQKDKMAEAYSEIGMKGERRRGKGHDGLYQGLSTATKDTYDALHMQALPPR |
| binds | 10E3 CHD (protein) CAR polypeptide (scFv, CHD hinge, transmembrane, costimulatory and CD3 zeta domains): QVTLKESGPVLVKPTETLTLTCTVSGFSLINARMGVSWIRQPPGKALEWLAHIFSNAEKSYRTSLKSRLTISKDTSKSQVVLTMTNMDPVDTATYYCARIPGYGGNGDYHYYGMDVWGQGTTVTVSSGGGGSGGGGSGGGGSDIQMTQSPSSLSASLGDRVTITCRASQGIRNDLGWYQQKPGKAPKRLIYASSTLQSGVPSRFSGSGSGTEFTLTISSLQPEDFATYYCLQHNNFPWTFGQGTKVEIKRAAAIEVMYPPPYLDNEKSNGTIIHVKGKHLCPSPLFPGPSKPFWVLVVVGGVLACYSLLVTVAFIIFWVRSKRSRLLHSDYMNMTPRRPGPTRKHYQPYAPPRDFAAYRSRVKFSRSADAPAYQQGQNQLYNELNLGRREEYDVLDKRRGRDPEMGGKPRRKNPQEGLYNELQKDKMAEAYSEIGMKGERRRGKGHDGLYQGLSTATKDTYDALHMQALPPR |
